Positions count from the first letter of the chain named. No constants are given. Whether binding was seen depends on the method and setting. Some binding calls cover weakened binding; strength is not graded here.
B1: CRTH2-41-51 (Fc fusion, not shown: a dimerising Fc or GST)
chain: EVQLVESGGGLVQPGGSLRLSCAASGGIFRFNAMGWFRQAPGKERELVAGISGSGGDTYYADSVKGRFTISADNSKNTAYLQMNSLKPEDTAVYYCAAFRGIMRPDWGQGTLVTVSS
B2: CRTH2-74 (antibody)
VH: QVQLVESGGGVVQPGRSLRLSCAASGFSFSEYGIHWVRQAPGKGLEWVAVISYEGSNEYYADSVKGRFTISRDNSKNTLYLQMNSLRAEDTAVYYCARANQHFGPVAGGATPSEEPGSQLTRAELGWDAPPGQESLADELLQLGTEHGYHYYGMDVWGQGTLVTVSS
VL: QSVLTQPPSVSAAPGQKVTISCSGSTSNIGKNYVSWYQQLPGTAPKLLIYDDDERPSGIPDRFSGSMSGTSATLGITGLQTGDEADYYCEAWDADLSGAVFGGGTKLTVL
B3: CRTH2-24 (antibody, V domains shown)
VH: QVQLVQSGAEVKKPGSSVKVSCKASGGSFSNYGISWVRQAPGQGLEWMGGIIPLIGTANYAQKFQGRVTITADESTSTAYMELSSLRSEDTAVYYCARDMYYDFTLGPQSIGPLGEVVPADDAFDIWGQGTLVTVSS
VL: QSVLTQPPSVSAAPGQKVTISCSGSSSNIGNNFVSWYQQLPGTAPKLLIYDNIQRPSGIPDRFSGSKSGTSATLGITGLQTGDEADYYCGTWDTSLSAVVFGGGTKLTVLR
B4: CRTH2-19 (antibody, V domains shown)
VH: QVQLVQSGAEVKKPGSSVKVSCKASGGTFSSHAINWVRQAPGQGLEWMGRIIPIVGTTTYAQKFQGRVTITADESTSTAYMELSSLRSEDTAVYYCARDMYYDFDYFGLTLTGDRNDDEVVPADDAFDIWGQGTLVTVSS
VL: QSALTQPASVSGSPGQSITISCTGTSSDVGGYDYVTWYQQHPGKAPKLMIYDVDTRPSGVSNRFSGSKSGNTASLTISGLQAEDEADYYCSSYTTSTSYVFGGGTKLTVL
B5: CRTH2 39 (antibody, V domains shown)
VH: QVQLVQSGAEVKKPGSSVKVSCKASVDTFSRYSISWVRQAPGQGLEWMGGIIPVFDTTNYAQKFQGRVTITADESTSTAYMELSSLRSEDTAVYYCARDMYYDFGVILGGTAVGTNNGSANEVVPADDAFDIWGQGTLVTVSS
VL: QSVLTQPPSVSAAPGQKVTISCSGSSSNIGDNDVSWYQQLPGTAPKLLIYDDDKRPSGIPDRFSGSKSGTSATLGITGLQTGDEADYYCASWDTSLSGGYVFGGGTKLTVL
B6: CRTH2-8 (antibody, V domains shown)
VH: QVQLVQSGAEVKKPGSSVKVSCKASGGTFTDYAISWVRQAPGQGLEWMGGIIPFFGSPNYAQKFQGRVTITADESTSTAYMELSSLRSEDTAVYYCARDMYYDFAAGLEGTITEVFDEEGHQGGTEVVPADDAFDIWGQGTLVTVSS
VL: QSVLTQPPSVSAAPGQKVTISCSGSSSNIGKNYVSWYQQLPGTAPKLLIYDNNQRPSGIPDRFSGSKSGTSATLGITGLQTGDEADYYCGTWDTSLTSVVFGGGTKLTVL
B7: CRTH2-27 (antibody, V domains shown)
VH: QVQLVESGGGVVQPGRSLRLSCAASGFTFDNYGMHWVRQAPGKGLEWVAVISYEGSNKKYADSVKGRFTISRDNSKNTLYLQMNSLRAEDTAVYYCARDMYYDFGSIYGEDVVGELPEVVPADDAFDIWGQGTLVTVSS
VL: QSALTQPASVSGSPGQSITISCTGTSNDVGAYNFVSWYQQHPGKAPKLMIYDISNRPSGVSNRFSGSKSGNTASLTISGLQAEDEADYYCSSYTRSNTRVFGGGTKLTVL
B8: CRTH2-45 (antibody)
VH: QVQLVESGGGVVQPGRSLRLSCAASGFTFSHYAMHWVRQAPGKGLEWVADISHEGSNKYYADSVKGRFTISRDNSKNTLYLQMNSLRAEDTAVYYCARDGRGSLPRPKGGPTSGGGFSTNIGYGFVVQSYDSSEDSGGAFDIWGQGTLVTVSS
VL: QSVLTQPPSVSAAPGQKVTISCSGTSSNIENNYVSWYQQLPGTAPKLLIYDNVKRPSGIPDRFSGSKSGTSATLGITGLQTGDEADYYCGTWDNTVSAPWVFGGGTKLTVL
B9: CRTH2 35 (antibody, V domains shown)
VH: QVQLVQSGAEVKKPGSSVKVSCKASGGTFRSYAISWVRQAPGQGLEWMGGIIPISGTTNYAQKFQGRVTITADESTSTAYMELSSLRSEDTAVYYCARANQHFTRIFGNYQIYFGHFGYHYYGMDVWGQGTLVTVSS
VL: QSALTQPASVSGSPGQSITISCTGTSSDIGGYEFVSWYQQHPGKAPKLMIYGVSRRPSGVSNRFSGSKSGNTASLTISGLQAEDEADYYCGSYTSSSTPYVFGGGTKLTVL
B10: CRTH2-32 (antibody, V domains shown)
VH: QVQLVESGGGVVQPGRSLRLSCAASGFTFSKHGMHWVRQAPGKGLEWVAFISYEGSEKYYADSVKGRFTISRDNSKNTLYLQMNSLRAEDTAVYYCARDMYYDFHYSTVGATYYYYLGSETEVVPADDAFDIWGQGTLVTVSS
VL: QSALTQPASVSGSPGQSITISCTGTSSGVGGYDYVSWYQQHPGKAPKLMIYDDNNRPSGVSNRFSGSKSGNTASLTISGLQAEDEADYYCSSYTGSSTLYVFGGGTKLTVL
B11: CRTH2 66 (antibody)
heavy chain (variable domain given): QVQLVESGGGVVQPGRSLRLSCAASGFDFSGYGMHWVRQAPGKGLEWVAVISYEGSNKFYADSVKGRFTISRDNSKNTLYLQMNSLRAEDTAVYYCARDLRELECEEWTIEVHGQEFAVHQDRGGVFSRGPCVDPRGVAGSFDVWGQGTLVTVSS
light chain (variable domain given): EIVMTQSPATLSVSPGERATLSCRASQGVGSNLAWYQQKPGQAPRLLIYRTSIRATGIPARFSGSGSGTEFTLTISSLQSEDFAVYYCQQYYSWPPLTFGGGTKVEIK
B12: CRTH2 57 (antibody, V domains shown)
VH: QVQLVQSGAEVKKPGSSVKVSCKASGGTFSSYAMSWVRQAPGQGLEWMGGIIPLFGTTDYAQKFQGRVTITADESTSTAYMELSSLRSEDTAVYYCARANQHFVKIQGAPVSTPVPGFGTTGYHYYGMDVWGQGTLVTVSS
VL: B6 VL with G30E, K31D, N53F, Q54K, T97S, S98A, V99A, V100L
B13: CRTH2 25 (antibody, V domains shown)
VH: QVQLVQSGAEVKKPGSSVKVSCKASGGSFRSYGISWVRQAPGQGLEWMGRIIPLFGTPDYAQKFQGRVTITADESTSTAYMELSSLRSEDTAVYYCARDMYYDFEDVDEGSLYLDMGRTFEVVPADDAFDIWGQGTLVTVSS
VL: DIQMTQSPSSLSASVGDRVTITCRASQGISTYLNWYQQKPGKAPKLLIYATSSLQSGVPSRFSGSGSGTDFTLTISSLQPEDFATYYCQQSYSTPWTFGGGTKVEIK
B14: CRTH2-42 (antibody)
VH: QVQLVESGGGVVQPGRSLRLSCAASGFAFSSYAMHWVRQAPGKGLEWVAVISYEGSNEYYADSVKGRFTISRDNSKNTLYLQMNSLRAEDTAVYYCARDLRELECEEWTVLQYGKFHMRWAESGEGSLSRGPCVDPRGVAGSFDVWGQGTLVTVSS
VL: B10 VL with G28D, D33R, D52N, D53V, N55Y, T94R, G95S, Y100G
B15: CRTH2-15 (antibody, V domains shown)
VH: QVQLVQSGAEVKKPGSSVKVSCKASGGTFSTYAIDWVRQAPGQGLEWMGGIIPLFGSPNYAQKFQGRVTITADESTSTAYMELSSLRSEDTAVYYCARANQHFFLYEGTSSSWLHVGHARYGYHYYGMDVWGQGTLVTVSS
VL: B6 VL with S26G, K31S, N53I, Q54R, G90A, T91A, S95R, T97S, S98A, V99G
B16: CRTH2-50 (antibody, V domains shown)
VH: QVQLVQSGAEVKKPGSSVKVSCKASGGTFSSYALSWVRKAPGQGLEWMGGTIPIFGTVNYAQKFQGRVTITADESTSTAYMELSSLRSEDTAVYYCARANQHFTRVIGQPSPAVPSRGYIYHGYHYYGMDVWGQGTLVTVSS
VL: B9 VL with E33N, G52D, R55N, S58Q, G91S, S97N, P99Y, Y100V

Experiments:
[1] = biological target: T1, CRTH2R (UniProt Q9Y5Y4); experiment: flow cytometry (MFI), titration 0.05-100 nM on CRTH2R cells against parent cells; no legend on the panel: grey curve taken as the CRTH2R cells, black as the parent cells
T1 sequence (looked up): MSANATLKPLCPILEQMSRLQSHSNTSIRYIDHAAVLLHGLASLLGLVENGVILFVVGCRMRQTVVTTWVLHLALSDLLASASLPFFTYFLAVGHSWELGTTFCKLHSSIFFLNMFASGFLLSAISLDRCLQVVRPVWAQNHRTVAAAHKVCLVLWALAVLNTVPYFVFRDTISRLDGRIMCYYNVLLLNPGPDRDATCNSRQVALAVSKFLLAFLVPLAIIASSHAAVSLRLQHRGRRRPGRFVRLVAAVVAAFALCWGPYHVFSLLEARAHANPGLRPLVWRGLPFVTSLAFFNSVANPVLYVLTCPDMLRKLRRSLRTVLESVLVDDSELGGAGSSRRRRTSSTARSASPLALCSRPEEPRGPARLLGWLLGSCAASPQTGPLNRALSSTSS

[2] = biological target: T1, CRTH2R; experiment: flow cytometry, CRTH2R cells against parent cells (RL1-A APC against BL1-A FITC)
[3] = biological target: T1, CRTH2R; experiment: flow cytometry (MFI), CHO CRTH2R-positive cells against parental CHO cells, 3-fold titration from 100 nM; grey = CRTH2R cells, black = parental cells (no legend on the panel)
[4] = biological target: T1, CRTH2R; experiment: flow cytometry, gated dot plot at 100 nM IgG (RL1-A APC against BL1-A FITC)
[5] = biological target: T1, CRTH2R; experiment: flow cytometry, APC histogram at 100 nM IgG
[6] = biological target: T1, CRTH2R; experiment: flow cytometry (MFI), CHO CRTH2R-positive cells against parental CHO cells; same panel as in FIG. 15B; grey = CRTH2R cells, black = parental cells (no legend on the panel)
[7] = biological target: T1, CRTH2R; experiment: flow cytometry (MFI), CHO CRTH2R-positive cells against parental CHO cells; same panel as in FIG. 15C; grey = CRTH2R cells, black = parental cells (no legend on the panel)
[8] = biological target: T1, CRTH2R; experiment: flow cytometry (MFI), CHO CRTH2R-positive cells against parental CHO cells; same panel as in FIG. 15D; grey = CRTH2R cells, black = parental cells (no legend on the panel)
[9] = biological target: T1, CRTH2R; experiment: flow cytometry (MFI), CHO CRTH2R-positive cells against parental CHO cells; same panel as in FIG. 15E; grey = CRTH2R cells, black = parental cells (no legend on the panel)

Binder | binding [3] | other results
B1 | – | binding [1]: binds; binding [2]: binds
B2 | binds | –
B3 | binds | –
B4 | binds | –
B5 | binds | –
B6 | binds | –
B7 | binds | binding [4]: binds; binding [5]: binds; binding [6]: binds
B8 | binds | –
B9 | binds | –
B10 | binds | binding [7]: binds
B11 | binds | –
B12 | binds | –
B13 | binds | –
B14 | binds | binding [8]: binds
B15 | binds | –
B16 | binds | binding [9]: binds
